The values below come from patent publication US9463195B2, “Dissolution of amyloid fibrils by flavonoids and other compounds” (The Regents of the University of California, priority 2006, dated 2016).

The structures appear in SMILES notation.

The target of the assay is preformed human β-2 microglobulin fibrils (Homo sapiens, UniProt P61769). Description: Thioflavin T fluorescence high-throughput screen (slope assay score) for disruption of preformed fibrils. In kind it is biochemical. Here is the method: As used herein, “slope assay score” means the slope of the relative fluorescence of thioflavin T versus time curve for a given compound in a thioflavin T fluorescence assay. A negative slope signifies a decrease in thioflavin T fluorescence over time.
The human β-2 microglobulin fibrils were prepared in vitro at 0.1 mg/mL protein in 25 mM phosphate, pH 2, 0.2 M NaCl without agitation for 1 week at 37° C., in the same manner as Ivanova et al. See Ivanova et al. (Proc Natl Acad Sci U.S.A. 2004 Jul. 20; 101(29):10584-9).
In our experiments, disruption of the fibrillar structure of preformed β-2 microglobulin fibrils was monitored by fluorescence. […] Thioflavin T binds specifically to human β-2 microglobulin fibrils, causing a red shift in the fluorescence excitation spectra of the dye to produce a peak in the fluorescence emission spectrum at 482 nm when the excitation wavelength is set at 444 nm. […]
In the fluorescence assay used here, preformed human β-2 microglobulin fibrils were mixed with a solution of 5 μM ThT in 50 mM glycine, pH 8.6 in a 3:14 ratio (final concentrations: 4.1 μM ThT, 41.2 mM glycine, 0.018 mg/mL β-2 microglobulin, 35 mM NaCl and 4.4 mM phosphate). Fluorescence was measured immediately after mixing (excitation wavelength set at 444 nm, emission wavelengths at 482, 490, and 502 nm) with a Molecular Devices FlexStation II. […]

`CN(C)CCOC(c1ccccc1)c1ccccc1.Cn1c(=O)c2[nH]c(Cl)nc2n(C)c1=O` [dimenhydrinate]: the “effective in the fluorescence assay at disrupting β-2 microglobulin fibers” value is “effective”.
